Experimental data from PubChem BioAssay (EPA / NIEHS).
The source calls these results inconclusive, neither active nor inactive. The calls were made as follows: active = hit-call score of the fitted dose curve at least 0.9, where 1 is the maximum; inconclusive = response in the unintended direction; inactive = score below 0.9.

The chains behind the UniProt entries cited, without tags or fusion partners.
UniProt P19793, whole entry: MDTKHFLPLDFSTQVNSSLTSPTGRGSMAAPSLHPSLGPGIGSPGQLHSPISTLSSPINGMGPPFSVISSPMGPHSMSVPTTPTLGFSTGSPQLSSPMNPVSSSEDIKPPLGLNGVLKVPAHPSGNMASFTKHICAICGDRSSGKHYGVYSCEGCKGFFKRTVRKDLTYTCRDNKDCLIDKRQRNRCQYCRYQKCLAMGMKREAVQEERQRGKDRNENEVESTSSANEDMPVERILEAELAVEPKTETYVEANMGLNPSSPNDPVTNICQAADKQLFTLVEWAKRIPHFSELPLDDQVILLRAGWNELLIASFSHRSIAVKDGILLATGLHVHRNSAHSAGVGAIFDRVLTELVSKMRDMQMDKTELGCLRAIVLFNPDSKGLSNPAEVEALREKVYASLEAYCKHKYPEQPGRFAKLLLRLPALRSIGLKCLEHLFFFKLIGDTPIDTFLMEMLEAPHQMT
UniProt P10827, whole entry: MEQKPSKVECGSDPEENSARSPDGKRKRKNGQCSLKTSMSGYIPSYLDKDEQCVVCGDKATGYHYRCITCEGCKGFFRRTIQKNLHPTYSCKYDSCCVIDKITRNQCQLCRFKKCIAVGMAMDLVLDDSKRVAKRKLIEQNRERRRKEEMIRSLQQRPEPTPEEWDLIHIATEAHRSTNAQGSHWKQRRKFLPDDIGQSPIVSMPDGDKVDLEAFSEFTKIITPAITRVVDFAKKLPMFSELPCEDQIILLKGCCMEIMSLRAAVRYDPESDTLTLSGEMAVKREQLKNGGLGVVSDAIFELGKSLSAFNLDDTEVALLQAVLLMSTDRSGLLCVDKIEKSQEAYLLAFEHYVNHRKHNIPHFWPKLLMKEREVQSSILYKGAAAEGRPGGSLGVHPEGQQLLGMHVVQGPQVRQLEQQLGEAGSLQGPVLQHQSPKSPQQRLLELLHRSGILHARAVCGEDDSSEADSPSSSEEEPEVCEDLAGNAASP
UniProt Q01717, whole entry: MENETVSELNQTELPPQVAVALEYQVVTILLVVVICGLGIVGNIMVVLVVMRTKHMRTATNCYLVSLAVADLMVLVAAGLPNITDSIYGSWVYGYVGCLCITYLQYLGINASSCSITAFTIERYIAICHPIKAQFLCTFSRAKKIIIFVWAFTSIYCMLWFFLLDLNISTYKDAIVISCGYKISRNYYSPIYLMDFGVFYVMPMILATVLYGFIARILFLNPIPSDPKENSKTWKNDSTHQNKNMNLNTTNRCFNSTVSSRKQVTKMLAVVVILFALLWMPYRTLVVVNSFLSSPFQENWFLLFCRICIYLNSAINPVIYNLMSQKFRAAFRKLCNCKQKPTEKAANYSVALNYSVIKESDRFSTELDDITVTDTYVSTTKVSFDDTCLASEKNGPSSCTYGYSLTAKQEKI
UniProt Q14994, whole entry: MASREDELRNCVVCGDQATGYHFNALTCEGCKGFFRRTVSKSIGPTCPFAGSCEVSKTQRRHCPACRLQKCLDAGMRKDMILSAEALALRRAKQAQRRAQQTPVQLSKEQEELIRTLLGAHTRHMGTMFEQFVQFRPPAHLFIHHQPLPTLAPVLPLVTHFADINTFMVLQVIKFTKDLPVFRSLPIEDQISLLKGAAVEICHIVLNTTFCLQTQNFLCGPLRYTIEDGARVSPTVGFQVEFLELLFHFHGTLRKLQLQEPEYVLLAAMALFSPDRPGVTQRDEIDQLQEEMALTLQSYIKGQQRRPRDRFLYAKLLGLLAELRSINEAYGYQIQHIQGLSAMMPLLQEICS
UniProt P03372, whole entry: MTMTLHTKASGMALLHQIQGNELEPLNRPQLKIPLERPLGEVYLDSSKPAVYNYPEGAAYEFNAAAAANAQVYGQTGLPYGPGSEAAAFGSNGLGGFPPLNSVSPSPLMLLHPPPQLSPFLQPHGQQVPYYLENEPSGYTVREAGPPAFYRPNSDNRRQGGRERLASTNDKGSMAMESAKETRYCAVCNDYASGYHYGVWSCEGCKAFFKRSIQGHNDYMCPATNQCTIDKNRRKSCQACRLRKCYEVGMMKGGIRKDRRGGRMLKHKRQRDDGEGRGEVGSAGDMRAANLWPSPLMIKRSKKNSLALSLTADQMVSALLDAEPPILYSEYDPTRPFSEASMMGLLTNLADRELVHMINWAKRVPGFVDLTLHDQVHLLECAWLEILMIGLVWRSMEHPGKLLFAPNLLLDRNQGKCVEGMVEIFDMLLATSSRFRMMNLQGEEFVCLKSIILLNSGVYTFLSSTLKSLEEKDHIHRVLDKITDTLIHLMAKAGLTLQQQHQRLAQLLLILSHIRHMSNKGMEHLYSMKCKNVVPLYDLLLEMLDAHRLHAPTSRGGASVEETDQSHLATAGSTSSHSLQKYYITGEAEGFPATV
UniProt P11474, whole entry: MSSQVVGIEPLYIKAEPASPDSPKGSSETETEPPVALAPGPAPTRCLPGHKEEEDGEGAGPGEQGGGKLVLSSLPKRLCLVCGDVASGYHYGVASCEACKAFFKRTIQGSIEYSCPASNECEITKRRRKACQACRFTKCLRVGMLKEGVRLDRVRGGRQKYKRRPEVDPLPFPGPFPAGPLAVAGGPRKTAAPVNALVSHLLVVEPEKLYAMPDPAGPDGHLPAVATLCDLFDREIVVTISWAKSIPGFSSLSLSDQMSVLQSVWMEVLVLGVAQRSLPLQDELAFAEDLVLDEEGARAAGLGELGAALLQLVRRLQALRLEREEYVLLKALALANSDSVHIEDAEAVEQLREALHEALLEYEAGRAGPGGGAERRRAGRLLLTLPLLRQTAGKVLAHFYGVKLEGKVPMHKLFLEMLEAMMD
UniProt P62508, whole entry: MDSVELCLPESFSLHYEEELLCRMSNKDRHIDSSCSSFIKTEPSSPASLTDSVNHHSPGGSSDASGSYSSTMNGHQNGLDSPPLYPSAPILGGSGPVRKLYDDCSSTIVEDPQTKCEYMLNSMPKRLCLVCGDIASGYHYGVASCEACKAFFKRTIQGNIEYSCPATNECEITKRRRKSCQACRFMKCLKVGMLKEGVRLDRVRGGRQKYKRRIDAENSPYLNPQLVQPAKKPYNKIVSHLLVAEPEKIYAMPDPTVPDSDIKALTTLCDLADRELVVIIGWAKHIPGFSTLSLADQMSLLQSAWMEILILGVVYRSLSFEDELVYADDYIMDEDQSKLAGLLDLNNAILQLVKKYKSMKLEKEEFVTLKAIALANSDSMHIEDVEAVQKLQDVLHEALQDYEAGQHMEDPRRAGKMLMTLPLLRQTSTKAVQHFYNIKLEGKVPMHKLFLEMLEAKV
UniProt P04150, whole entry: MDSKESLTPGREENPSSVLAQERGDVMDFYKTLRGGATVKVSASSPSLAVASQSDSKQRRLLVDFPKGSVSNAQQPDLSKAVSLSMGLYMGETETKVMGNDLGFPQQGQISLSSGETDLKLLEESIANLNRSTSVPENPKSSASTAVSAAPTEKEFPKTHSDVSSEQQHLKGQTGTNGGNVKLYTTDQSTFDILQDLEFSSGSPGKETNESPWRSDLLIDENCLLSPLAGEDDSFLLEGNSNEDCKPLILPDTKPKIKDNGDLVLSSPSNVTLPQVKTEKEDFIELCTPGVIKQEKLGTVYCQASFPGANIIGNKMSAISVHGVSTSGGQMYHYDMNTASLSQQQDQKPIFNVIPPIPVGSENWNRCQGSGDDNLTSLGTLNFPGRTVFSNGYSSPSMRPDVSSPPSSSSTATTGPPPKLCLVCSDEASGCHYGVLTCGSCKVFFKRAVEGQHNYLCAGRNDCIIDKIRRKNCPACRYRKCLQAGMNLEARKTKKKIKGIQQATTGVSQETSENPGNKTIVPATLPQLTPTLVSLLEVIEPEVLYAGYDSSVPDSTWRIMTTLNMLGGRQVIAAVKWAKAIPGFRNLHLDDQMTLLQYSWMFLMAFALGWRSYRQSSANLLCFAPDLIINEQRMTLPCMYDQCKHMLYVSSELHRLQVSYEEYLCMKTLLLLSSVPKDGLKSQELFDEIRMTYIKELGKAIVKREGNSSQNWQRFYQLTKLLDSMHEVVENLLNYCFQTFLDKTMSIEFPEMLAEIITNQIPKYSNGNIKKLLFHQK
UniProt Q13133, whole entry: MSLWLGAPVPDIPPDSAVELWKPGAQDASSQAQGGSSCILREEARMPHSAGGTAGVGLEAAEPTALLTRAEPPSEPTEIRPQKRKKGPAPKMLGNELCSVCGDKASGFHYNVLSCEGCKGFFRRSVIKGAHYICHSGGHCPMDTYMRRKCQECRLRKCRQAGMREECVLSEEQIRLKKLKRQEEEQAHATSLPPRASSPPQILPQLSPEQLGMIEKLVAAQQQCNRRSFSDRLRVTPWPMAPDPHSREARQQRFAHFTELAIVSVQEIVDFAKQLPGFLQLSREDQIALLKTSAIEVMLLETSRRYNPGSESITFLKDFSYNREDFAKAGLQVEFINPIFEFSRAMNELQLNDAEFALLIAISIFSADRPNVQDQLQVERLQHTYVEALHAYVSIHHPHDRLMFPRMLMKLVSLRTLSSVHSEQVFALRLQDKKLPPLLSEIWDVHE
UniProt P43354, whole entry: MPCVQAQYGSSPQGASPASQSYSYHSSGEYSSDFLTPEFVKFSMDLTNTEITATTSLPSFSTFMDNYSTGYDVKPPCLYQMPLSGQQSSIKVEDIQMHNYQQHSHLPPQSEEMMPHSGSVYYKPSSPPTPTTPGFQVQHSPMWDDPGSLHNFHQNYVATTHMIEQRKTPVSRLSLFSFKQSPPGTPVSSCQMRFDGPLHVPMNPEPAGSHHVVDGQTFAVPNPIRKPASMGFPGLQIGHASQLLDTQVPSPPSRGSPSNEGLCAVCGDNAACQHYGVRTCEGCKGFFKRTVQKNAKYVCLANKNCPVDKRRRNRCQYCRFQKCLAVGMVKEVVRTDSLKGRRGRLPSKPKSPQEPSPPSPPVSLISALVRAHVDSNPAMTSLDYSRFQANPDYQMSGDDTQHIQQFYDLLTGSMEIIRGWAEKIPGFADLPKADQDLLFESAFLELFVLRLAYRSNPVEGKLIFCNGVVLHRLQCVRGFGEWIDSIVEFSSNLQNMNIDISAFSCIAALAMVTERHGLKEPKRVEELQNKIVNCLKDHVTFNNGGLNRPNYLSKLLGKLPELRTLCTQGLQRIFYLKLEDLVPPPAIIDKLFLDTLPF
UniProt P29466, whole entry: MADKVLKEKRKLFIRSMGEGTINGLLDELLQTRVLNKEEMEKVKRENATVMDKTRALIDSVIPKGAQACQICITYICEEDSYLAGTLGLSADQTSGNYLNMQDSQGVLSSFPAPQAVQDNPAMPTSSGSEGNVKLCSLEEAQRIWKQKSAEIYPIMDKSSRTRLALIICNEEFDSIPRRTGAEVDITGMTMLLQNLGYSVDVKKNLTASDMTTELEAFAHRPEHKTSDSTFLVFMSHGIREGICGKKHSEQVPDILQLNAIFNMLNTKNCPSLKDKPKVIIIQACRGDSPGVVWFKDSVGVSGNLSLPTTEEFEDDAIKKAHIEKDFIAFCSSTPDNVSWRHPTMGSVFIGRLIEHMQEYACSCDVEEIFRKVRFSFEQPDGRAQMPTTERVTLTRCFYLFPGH
UniProt P08219, whole entry: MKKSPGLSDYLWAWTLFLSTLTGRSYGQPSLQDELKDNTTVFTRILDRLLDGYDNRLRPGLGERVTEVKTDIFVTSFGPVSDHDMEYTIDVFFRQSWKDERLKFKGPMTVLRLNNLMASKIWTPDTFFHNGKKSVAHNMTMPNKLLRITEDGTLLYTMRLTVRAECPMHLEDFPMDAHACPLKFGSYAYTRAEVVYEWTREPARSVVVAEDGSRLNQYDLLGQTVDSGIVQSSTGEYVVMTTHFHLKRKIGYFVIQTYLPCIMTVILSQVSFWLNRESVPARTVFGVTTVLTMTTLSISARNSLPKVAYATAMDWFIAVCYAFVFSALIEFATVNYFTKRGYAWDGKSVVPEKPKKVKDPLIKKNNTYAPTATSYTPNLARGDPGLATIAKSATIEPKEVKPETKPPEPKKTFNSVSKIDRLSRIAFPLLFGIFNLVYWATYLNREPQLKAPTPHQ
UniProt Q01827, whole entry: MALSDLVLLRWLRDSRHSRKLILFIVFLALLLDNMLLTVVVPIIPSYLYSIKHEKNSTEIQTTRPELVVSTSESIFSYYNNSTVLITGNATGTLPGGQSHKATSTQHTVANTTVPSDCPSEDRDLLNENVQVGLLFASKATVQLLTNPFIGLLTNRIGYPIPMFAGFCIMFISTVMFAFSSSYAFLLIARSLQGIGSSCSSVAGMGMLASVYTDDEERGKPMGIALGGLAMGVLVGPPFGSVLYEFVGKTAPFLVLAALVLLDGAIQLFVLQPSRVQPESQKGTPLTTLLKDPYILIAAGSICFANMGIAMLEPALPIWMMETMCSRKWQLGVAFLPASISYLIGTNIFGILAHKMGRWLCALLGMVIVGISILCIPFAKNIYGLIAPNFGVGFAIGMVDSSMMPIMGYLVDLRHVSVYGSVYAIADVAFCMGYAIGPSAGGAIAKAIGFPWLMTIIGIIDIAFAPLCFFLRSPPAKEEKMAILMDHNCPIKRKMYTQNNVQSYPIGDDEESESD

Assays:
[1] = ATG_M_19_TRANS: Attagene TRANS-FACTORIAL HepG2 Assay for M19 Transcription Factor (Internal Marker) (AID 2282974); settings: HepG2 Attagene TRANS-FACTORIAL M19 internal marker reporter
In short: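 Background-control readout: after 24 h chemical exposure of transfected HepG2 carrying GAL4-driven reporter units, RNA was reverse-transcribed, amplified, fluorescently labeled and sized by capillary electrophoresis; gain-of-signal fit against DMSO.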

[2] = target: Retinoic acid receptor RXR-alpha (Homo sapiens) (UniProt P19793); experiment: ATG_RXRa_TRANS: Attagene TRANS-FACTORIAL HepG2 Assay for human Retinoid X Receptor alpha (RXRa) (AID 2283012)
In short: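 TRANS format reporting activity of exogenous RXRa-Gal4 chimera in transiently transfected HepG2, 24 h exposure. Reporter transcripts quantified by RT-PCR with capillary electrophoresis, with gain of signal scored relative to DMSO.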

[3] = target: human Thyroid Receptor alpha (THRa1), THRA (gene 7067) (UniProt P10827); experiment: ATG_THRa1_TRANS: Attagene TRANS-FACTORIAL HepG2 Assay for human Thyroid Receptor alpha (THRa1) (AID 2283014)
In short: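 Reporter transcript induction, read by capillary electrophoresis of 6-FAM-labelled RT-PCR products, reflects activity of a transfected THRa1-Gal4 fusion in HepG2 liver cells. Cells were dosed for 24 h; activity was fitted in the positive direction against DMSO.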

[4] = target: rat Thyrotropin Releasing Hormone Receptor (TRH), Trhr (gene 25570) (UniProt Q01717); experiment: NVS_GPCR_rTRH: NovaScreen (NVS) G Protein-Coupled Receptor Assay for rat Thyrotropin Releasing Hormone Receptor (TRH) (AID 2283329);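 also: hit means lower bound tracer signal versus DMSO baseline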
In short: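 Test compounds are screened at 25 uM in duplicate against radioligand binding in rat forebrain membranes, with active pairs followed up over a concentration range. Detection uses filter-based radiodetection after a 4 h exposure.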

[5] = target: Retinoic acid receptor RXR-alpha (Homo sapiens) (UniProt P19793); experiment: OT_NURR1_NURR1RXRa_0480: Odyssey Thera (OT) 8-hour HEK293T Protein Complementation Assay for Nurr1/retinoid X receptor (RXR) (AID 2283385)
In short: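 Interaction of Nurr1 with RXRα read as reconstituted reporter fluorescence in a HEK293T fragment-complementation system, 8 h post-treatment; increase over DMSO baseline analysed.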

[6] = CCTE_Harrill_HTTr_CellCount_MCF7: CCTE's Cell Proliferation Assessment for the High-Throughput Transcriptomics (HTTr) Platform, Harrill Lab (AID 2284012);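 also: cells exposed to compound for six hours; intended direction is loss of nuclei count meaning fewer cells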
In short: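 Cell count from high-content imaging of Hoechst-labeled nuclei serves as viability/growth readout. Chemicals were applied to MCF-7 cells in eight concentrations for six hours, with fitting in both directions relative to DMSO.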

[7] = target: Nuclear receptor subfamily 1 group I member 3 (Homo sapiens) (UniProt Q14994); experiment: ATG_CAR_TRANS: Attagene TRANS-FACTORIAL HepG2 Assay for human Constitutive Androstane Receptor (CAR) (AID 2282969); settings: HepG2 Attagene TRANS-FACTORIAL CAR reporter;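 also: activators raise reporter mRNA above DMSO so AC50 marks induction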
In short: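 Signal is reporter mRNA induction relative to DMSO, measured 24 h after dosing by RT-PCR with fluorescent primer extension and capillary electrophoresis. Human HepG2 liver cells carried transiently transfected chimeric NR-Gal4/GAL4-UAS reporter constructs.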

[8] = target: Estrogen receptor (Homo sapiens) (UniProt P03372); experiment: ATG_ERa_TRANS: Attagene TRANS-FACTORIAL HepG2 Assay for human Estrogen Receptor alpha (ERa) (AID 2282970); settings: HepG2 Attagene TRANS ERa GAL4 reporter, mRNA
In short: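 Liver-derived HepG2 cells expressing chimeric nuclear receptor-Gal4 proteins from transient transfection were exposed for 24 hours. Gain of reporter mRNA signal versus DMSO, read by capillary electrophoresis of FAM-labelled PCR products, was recorded.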

[9] = target: Steroid hormone receptor ERR1 (Homo sapiens) (UniProt P11474); experiment: ATG_ERRa_TRANS: Attagene TRANS-FACTORIAL HepG2 Assay for human Estrogen-Related Receptor alpha (ERRa) (AID 2282971); settings: HepG2 Attagene TRANS reporter, ERRa transactivation
In short: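 Reporter transcript induction was quantified by RT-PCR and capillary electrophoresis of FAM-labelled, HpaI-cut products after 24 h treatment of HepG2 cells carrying transiently transfected GAL4-UAS reporter units and an exogenous ERRa-Gal4 fusion; activity scored as increase over DMSO.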

[10] = target: Estrogen-related receptor gamma (Homo sapiens) (UniProt P62508); experiment: ATG_ERRg_TRANS: Attagene TRANS-FACTORIAL HepG2 Assay for human Estrogen-Related Receptor gamma (ERRg) (AID 2282977); settings: HepG2 Attagene TRANS reporter, ERRg transactivation;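 also: hits increase reporter signal over DMSO so potencies reflect activators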
In short: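 Exogenous NR-Gal4 chimera activity measured as reporter transcript induction after 24 h in transiently transfected HepG2 cells. RNA reverse-transcribed, PCR-amplified, 6-FAM-labelled and resolved by capillary electrophoresis; increase over DMSO baseline.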

[11] = target: Glucocorticoid receptor (Homo sapiens) (UniProt P04150); experiment: ATG_GR_TRANS: Attagene TRANS-FACTORIAL HepG2 Assay for human Glucocorticoid Receptor (GR) (AID 2282978); settings: HepG2 Attagene TRANS GR reporter, mRNA transcription;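 also: activators score as hits since higher reporter transcript over DMSO is fitted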
[12] = target: Oxysterols receptor LXR-alpha (Homo sapiens) (UniProt Q13133); experiment: ATG_LXRa_TRANS: Attagene TRANS-FACTORIAL HepG2 Assay for human Liver X Receptor alpha (LXRa) (AID 2282980); settings: HepG2 Attagene TRANS reporter, LXRa transactivation
In short: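 Transfect HepG2 with GAL4-UAS multiplex reporter constructs (TRANS format, chimeric receptor-GAL4); treat 24 h; extract RNA, reverse-transcribe, PCR-amplify, FAM-label, HpaI-digest; resolve fragments by capillary electrophoresis. Upward response vs DMSO.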

[13] = target: Nuclear receptor subfamily 4 group A member 2 (Homo sapiens) (UniProt P43354); experiment: ATG_NURR1_TRANS: Attagene TRANS-FACTORIAL HepG2 Assay for human Nuclear Receptor Related Protein 1 (NURR1) (AID 2282985); settings: HepG2 Attagene TRANS reporter, mRNA readout
In short: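 Reporter transcript induction, measured by RT-PCR with fluorescent labelling, HpaI digestion and capillary electrophoresis, after 24 hr dosing of human HepG2 cells transiently expressing an exogenous NR-Gal4 fusion with GAL4-UAS-driven reporters; DMSO as baseline.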

[14] = target: Caspase-1 (Homo sapiens) (UniProt P29466); experiment: NVS_ENZ_hCASP1: NovaScreen (NVS) Enzymatic Assay for human Caspase 1 (CASP1) (AID 2283132)
In short: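 Compounds were first tested in duplicate at 25 uM, with follow-up concentration series up to 50 uM. The bacterially expressed enzyme was read by fluorescence at 1 h post-dosing. Signal loss versus DMSO baseline indicates reduced enzyme activity.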

[15] = tested on: guinea pig Atrionatriuretic Peptide Receptor A (ANPA), gene 100135578; experiment: NVS_GPCR_gANPA: NovaScreen (NVS) G Protein-Coupled Receptor Assay for guinea pig Atrionatriuretic Peptide Receptor A (ANPA) (AID 2283291)
In short: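 Displacement of specific radioligand from guinea pig cerebellum membranes was read by scintillation after 1 h. A duplicate single-point screen at 25 uM was followed by a concentration series up to 50 uM, analysed relative to DMSO.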

[16] = target: rat Glutamate Metabotropic Receptor 5 (MGluR5), Grm5 (gene 24418) (UniProt P31424); experiment: NVS_GPCR_rmMGluR5: NovaScreen (NVS) G Protein-Coupled Receptor Assay for rat Glutamate Metabotropic Receptor 5 (MGluR5) (AID 2283307)
In short: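 Compounds first screened in duplicate at 25 uM, then in concentration series up to 50 uM if over threshold. Radioligand displacement on rat whole-brain membranes, filtration and scintillation counting after 1.5 h; binding loss relative to DMSO.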

[17] = target: bovine Gamma-Aminobutyric Acid Type A Receptor Agonist (GABAR Agonist), GABRA1 (gene 780973) (UniProt P08219); experiment: NVS_LGIC_bGABAR_Agonist: NovaScreen (NVS) Ligand-Gated Ion Channel Assay for bovine Gamma-Aminobutyric Acid Type A Receptor Agonist (GABAR Agonist) (AID 2283338)
In short: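 Radioligand binding to bovine cerebellar membranes in agonist format, read by filter-based scintillation counting after 1 h. Primary screen in duplicate at 25 uM, with actives followed in concentration series. Gain of signal versus DMSO.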

[18] = target: Norway rat Vesicular Monoamine Transporter (VMAT2), neurotransmitter transporter, Slc18a2 (gene 25549) (UniProt Q01827); experiment: NVS_TR_rVMAT2: NovaScreen (NVS) Transporter Assay for Norway rat Vesicular Monoamine Transporter (VMAT2), neurotransmitter transporter (AID 2283376);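 also: actives lower the bound radioligand signal below the DMSO level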
In short: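 Using rat forebrain membranes, specific radioligand binding to VMAT2 was measured by filtration and scintillation counting after 1 hour. Chemicals screened at 25 uM in duplicate, actives retested in concentration series, DMSO baseline.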

[19] = target: Retinoic acid receptor RXR-alpha (Homo sapiens) (UniProt P19793); experiment: OT_NURR1_NURR1RXRa_1440: Odyssey Thera (OT) 24-hour HEK293T Protein Complementation Assay for Nurr1/retinoid X receptor (RXR) (AID 2283386)
In short: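 Gain in fluorescence, fitted relative to DMSO, reflects Nurr1–RXRα association in HEK293T cells after 24 h dosing. Bait and prey are each linked to a reporter-protein fragment that reassembles on interaction.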

[20] = ATG_XTT_Cytotoxicity: Cytotoxicity Assessment in the Attagene TRANS-FACTORIAL HepG2 Assay (AID 2283584);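 also: cells exposed to compound for 24 h before reading; active means loss of viability signal versus DMSO baseline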
In short: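 Cells: human HepG2, transiently transfected with MRTU reporter constructs. Exposure 24 h. Readout: XTT, cell number. Baseline/neg ctrl DMSO; loss-of-signal scored.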

[21] = Tanguay_ZF_120hpf_TRUN_legacy: (Legacy) Oregon State University Tanguay Lab 120 Hour Post-fertilization zebrafish Assay for Truncated Body (AID 2283655)
In short: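 Truncated body is recorded as a binary endpoint at 120 hpf by brightfield imaging of wild-type 5D larvae. Exposure runs statically from 6 hpf at 28C with 0.64% DMSO; embryos dying earlier are not scored.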

[22] = Tanguay_ZF_120hpf_NC_legacy: (Legacy) Oregon State University Tanguay Lab 120 Hour Post-fertilization zebrafish Assay for Notochord and Tail Malformation (AID 2283656)
In short: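 Binary scoring of notochord distortion by brightfield microscopy; embryos dying were not scored. Wild-type Tropical 5D embryos, chorion removed, exposed singly and statically from 6 to 120 hpf, 28C, sealed, 0.64% DMSO.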

[23] = ACEA_AR_agonist_AUC_viability: ACEA Biosciences xCELLigence Real-Time Cell Analysis on Androgen Receptor Agonism for Viability (AID 2283775);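 also: viability read 80 hours after compound addition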
In short: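 22Rv1 cells; impedance growth kinetics; 8-pt 1:4 dilutions from 100 uM top final, ≤0.5% DMSO; n = 2; 80 h read; AUC viability, loss-of-signal vs DMSO.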

[24] = ACEA_AR_antagonist_AUC_viability: ACEA Biosciences xCELLigence Real-Time Cell Analysis on Androgen Receptor Antagonism for Viability (AID 2283776);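 also: 22Rv1 human prostate cancer cells growing on impedance electrode plates; area under impedance growth curve at 80 h after dosing as viability; hits lower the growth signal relative to DMSO meaning cytotoxicity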
In short: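 Viability endpoint from label-free cell-index monitoring: 22Rv1 cultures treated with an eight-point 1:4 dilution series starting at 100 uM final, AUC at 80 h fitted against DMSO.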

[25] = ACEA_ER_AUC_viability: ACEA Biosciences xCELLigence Real-Time Cell Analysis on Estrogen Receptor Agonism for Viability (AID 2283782);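 also: hit means loss of impedance signal meaning reduced cell growth or viability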
In short: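 Viability endpoint: reduced impedance area under the curve relative to DMSO, recorded by real-time electrode sensing over ~80 h of continuous exposure. Duplicate plates of T47D in hormone-depleted medium; eight concentrations, 1:4 dilutions, 100 uM maximum.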

[26] = CCTE_Shafer_MEA_acute_AB: CCTE's Alamar Blue Assay for Cytotoxicity in the Neural Acute Assay, Shafer Lab (AID 2284069);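 also: active compounds lower the viability signal compared with DMSO wells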
In short: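 Cytotoxicity endpoint for acute MEA exposures of primary rat cortical neurons on day 13 or 15. Resazurin reduction is read fluorescently at 544/590 nm, with DMSO as the negative-control baseline.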

[27] = CCTE_Shafer_MEA_acute_LDH: CCTE's Lactate Dehydrogenase Assay for Cytotoxicity in the Neural Acute Assay, Shafer Lab (AID 2284086);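 also: active means LDH release rises above DMSO vehicle level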
In short: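 LDH released during 40 min compound exposure of primary rat cortical cultures, quantified by absorbance at 490 nm in collected medium. Fitting direction positive versus DMSO vehicle.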

Measured: AC50

COP(C)(=O)OC
inconclusive: [1] | [2] 24.5 µM | [3] 2.9 µM | [4] 25 µM | [5] | [6]

O=[N+]([O-])c1cccc([N+](=O)[O-])c1
inconclusive: [7] 47.6 µM | [8] 176 µM | [9] 0.534 µM | [10] 0.0105 µM | [11] 24.7 µM | [12] 29 µM | [13] 0.00947 µM | [14] 25.9 µM | [15] 25.9 µM | [16] 0.108 µM | [17] 6.65 µM | [18] 25.9 µM | [5] 51.5 µM | [19] 51.5 µM | [20] 39.2 µM | [21] 135 µM | [22] 9.66 µM | [23] 50 µM | [24] 27.6 µM | [25] 51.5 µM | [26] 20.7 µM | [27] 20.7 µM
